Literature values, collected in patent US20110200558A1, “Treatment or Prevention of Hepatitis C with Immunomodulator Compounds” (priority 2008, published 2011).
At least one compound was matched to its structure with a doubt left.

Experiments:
HCV genotype 1 [1] = conditions: 750 mg every 8 hours, cited from earlier work
HCV = conditions: in combination with pegylated interferon alfa-2a, cited from earlier work
HCV genotype 1 [2] = conditions: cited from earlier work

CCC[C@H](NC(=O)[C@@H]1[C@H]2CCC[C@H]2CN1C(=O)[C@@H](NC(=O)[C@@H](NC(=O)c1cnccn1)C1CCCCC1)C(C)(C)C)C(=O)C(=O)NC1CC1 [VX-950, Telaprevir]
drop in HCV RNA from baseline (HCV genotype 1 [1]; 14 days, monotherapy): 4.4 log | time in which the reduction in viral load occurred (HCV genotype 1 [1]): ≤ 4 days | patients with undetectable HCV RNA (<30 IU/mL) (HCV; by day 14): 6 of 8 | decline in HCV RNA (HCV; end of 14 days): 5.5 log | patients with virus undetectable after 20 weeks of follow-up (SVR 20) (HCV genotype 1 [2]; patients who completed their treatment): 6 of 9 | patients achieving rapid viral response (HCV RNA <30 IU/mL) (HCV genotype 1 [2]; treatment-naive HCV genotype 1, interim analysis): 88% | patients achieving rapid viral response as measured by HCV RNA <10 IU/mL (HCV genotype 1 [2]; week 4 of treatment, interim analysis): 79%
